Test results as given in publication PMC8126939, “The TBC1D31/praja2 complex controls primary ciliogenesis through PKA‐directed OFD1 ubiquitylation” (The EMBO Journal, 2021).
Results are given in words; binding and its absence hold for the method and conditions named. For some assays here: In cells and extracts the contact can be indirect. Some binding calls cover weakened binding; strength is not graded here. For some assays here: Where a sequence is shown, tags or fusion partners need not be part of it. One block for each binder: values may come before it.

Assays:
[1] = target: T1, GST-praja2_(590–630) (human) (UniProt O43164); test: MST; Monolith NT 115; GST-praja2 fragments labelled with NHS-ester dye, TBC1D31 peptides titrated (16-point 1:1 dilution); 25°C, 20 mM NaP, 200 mM NaCl, 1 mM DTT, 0.05% Tween-20, pH 7.4; both purified
T1 sequence (chain, fluorescent dye on primary amines (NHS-ester labelling)): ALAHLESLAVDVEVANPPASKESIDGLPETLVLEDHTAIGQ

flag-OFD1 (human) = target: T2, flag-OFD1 (human) (UniProt O75665); test: co-IP; lysates of transfected HEK293 cells (150 mM NaCl, 50 mM Tris-HCl pH 7.5, 1 mM EDTA, 0.5% NP40), overnight with anti-flag antibody or control IgG, immunoblot
T2 sequence: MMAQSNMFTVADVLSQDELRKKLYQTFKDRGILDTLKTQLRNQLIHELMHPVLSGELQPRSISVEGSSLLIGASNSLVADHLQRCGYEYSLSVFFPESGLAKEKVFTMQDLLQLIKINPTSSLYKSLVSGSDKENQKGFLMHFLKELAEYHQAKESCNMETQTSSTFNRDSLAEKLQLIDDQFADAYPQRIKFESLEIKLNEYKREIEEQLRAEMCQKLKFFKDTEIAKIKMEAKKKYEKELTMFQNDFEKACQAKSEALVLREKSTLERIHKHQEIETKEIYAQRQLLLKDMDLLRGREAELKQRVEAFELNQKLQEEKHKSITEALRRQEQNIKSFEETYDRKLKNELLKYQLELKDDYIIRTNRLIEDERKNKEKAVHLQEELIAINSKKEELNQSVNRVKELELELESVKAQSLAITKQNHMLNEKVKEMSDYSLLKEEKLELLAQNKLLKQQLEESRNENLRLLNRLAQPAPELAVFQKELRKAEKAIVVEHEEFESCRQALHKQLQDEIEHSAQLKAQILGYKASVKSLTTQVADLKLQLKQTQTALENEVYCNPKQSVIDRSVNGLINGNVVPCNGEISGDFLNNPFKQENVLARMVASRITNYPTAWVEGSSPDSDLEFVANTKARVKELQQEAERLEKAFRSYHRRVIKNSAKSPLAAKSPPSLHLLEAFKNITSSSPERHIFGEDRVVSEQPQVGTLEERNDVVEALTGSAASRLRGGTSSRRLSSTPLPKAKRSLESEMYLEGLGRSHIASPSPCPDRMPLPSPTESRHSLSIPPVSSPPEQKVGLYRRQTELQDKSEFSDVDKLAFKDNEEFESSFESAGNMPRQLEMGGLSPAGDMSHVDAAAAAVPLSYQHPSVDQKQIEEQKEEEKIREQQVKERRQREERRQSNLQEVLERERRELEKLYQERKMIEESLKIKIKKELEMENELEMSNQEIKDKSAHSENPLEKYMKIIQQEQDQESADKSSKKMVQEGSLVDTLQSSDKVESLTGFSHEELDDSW

[2] = target: T3, endogenous TBC1D31 (cell lysates) (not stated (endogenous in cells that the legend does not name)) (UniProt Q96DN5); test: co-IP; endogenous proteins from cell lysates, immunoprecipitated with antibodies raised against residues 239-358 of human TBC1D31
T3 sequence: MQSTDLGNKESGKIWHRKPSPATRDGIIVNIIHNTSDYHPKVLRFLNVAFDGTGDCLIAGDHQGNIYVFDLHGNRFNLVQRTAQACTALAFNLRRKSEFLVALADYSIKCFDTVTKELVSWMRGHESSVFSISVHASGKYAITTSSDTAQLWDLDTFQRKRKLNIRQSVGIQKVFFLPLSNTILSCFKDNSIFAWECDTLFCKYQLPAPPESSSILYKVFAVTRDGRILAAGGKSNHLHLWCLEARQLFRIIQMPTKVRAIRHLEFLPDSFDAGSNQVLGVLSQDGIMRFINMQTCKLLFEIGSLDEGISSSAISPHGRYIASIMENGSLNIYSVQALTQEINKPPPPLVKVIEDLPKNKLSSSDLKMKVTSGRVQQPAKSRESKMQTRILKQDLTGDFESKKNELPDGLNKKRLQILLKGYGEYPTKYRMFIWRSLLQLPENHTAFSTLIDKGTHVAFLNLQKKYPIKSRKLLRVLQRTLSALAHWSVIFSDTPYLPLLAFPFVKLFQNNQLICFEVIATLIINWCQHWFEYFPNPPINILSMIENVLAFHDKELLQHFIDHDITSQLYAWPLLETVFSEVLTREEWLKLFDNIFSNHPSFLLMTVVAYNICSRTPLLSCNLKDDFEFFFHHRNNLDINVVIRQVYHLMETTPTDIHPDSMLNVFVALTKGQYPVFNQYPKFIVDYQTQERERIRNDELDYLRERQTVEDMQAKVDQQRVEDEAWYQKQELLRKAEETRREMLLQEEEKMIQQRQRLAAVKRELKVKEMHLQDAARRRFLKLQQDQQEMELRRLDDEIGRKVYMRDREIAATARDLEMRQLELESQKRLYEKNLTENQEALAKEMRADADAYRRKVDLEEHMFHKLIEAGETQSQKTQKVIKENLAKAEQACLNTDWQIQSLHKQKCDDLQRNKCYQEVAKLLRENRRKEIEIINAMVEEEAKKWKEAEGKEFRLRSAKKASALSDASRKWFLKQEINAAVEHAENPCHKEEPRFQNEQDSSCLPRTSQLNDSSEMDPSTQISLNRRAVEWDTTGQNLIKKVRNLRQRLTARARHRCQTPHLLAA

[3] = target: T4, endogenous TBC1D31 (mouse brain) (mouse (endogenous in mouse brain)) (UniProt Q6NXY1); test: co-IP; total lysates from mouse brain immunoprecipitated with anti-TBC1D31 antibodies or control IgG, immunoblot
T4 sequence: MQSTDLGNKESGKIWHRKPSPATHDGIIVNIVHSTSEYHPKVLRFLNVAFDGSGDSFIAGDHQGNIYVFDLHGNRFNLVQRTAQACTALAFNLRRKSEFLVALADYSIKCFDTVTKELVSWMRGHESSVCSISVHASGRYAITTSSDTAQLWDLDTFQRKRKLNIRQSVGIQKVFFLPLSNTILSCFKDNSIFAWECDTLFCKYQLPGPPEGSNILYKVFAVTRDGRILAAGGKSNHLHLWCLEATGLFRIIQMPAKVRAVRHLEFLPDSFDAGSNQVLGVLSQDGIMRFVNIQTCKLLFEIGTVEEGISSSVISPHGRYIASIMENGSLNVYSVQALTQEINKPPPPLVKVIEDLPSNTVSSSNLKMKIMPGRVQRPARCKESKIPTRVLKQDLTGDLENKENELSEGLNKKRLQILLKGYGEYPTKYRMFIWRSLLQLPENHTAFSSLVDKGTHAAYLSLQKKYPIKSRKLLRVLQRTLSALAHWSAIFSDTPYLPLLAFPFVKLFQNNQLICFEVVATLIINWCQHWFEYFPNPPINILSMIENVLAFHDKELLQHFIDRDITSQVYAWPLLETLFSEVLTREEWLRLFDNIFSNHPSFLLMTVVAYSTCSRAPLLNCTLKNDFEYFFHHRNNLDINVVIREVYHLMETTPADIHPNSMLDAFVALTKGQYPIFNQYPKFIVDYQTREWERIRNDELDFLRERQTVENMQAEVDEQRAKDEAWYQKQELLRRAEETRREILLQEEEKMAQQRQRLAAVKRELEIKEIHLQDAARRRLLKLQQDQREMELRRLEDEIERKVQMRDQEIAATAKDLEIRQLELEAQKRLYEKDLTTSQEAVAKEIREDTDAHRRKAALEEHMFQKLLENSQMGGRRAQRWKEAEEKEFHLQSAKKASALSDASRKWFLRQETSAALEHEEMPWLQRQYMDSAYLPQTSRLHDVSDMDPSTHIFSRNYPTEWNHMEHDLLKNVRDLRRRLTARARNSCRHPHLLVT

B1: peptide of the C-terminus segment of TBC1D31 (peptide)
peptide: WDTTGQNLIKKVRNLRQRLTARARHRCQTPHLLAA
notes: TBC1D31, human, C-terminus segment; also called WA35 TBC1D31; wild-type TBC1D31 peptide; source: synthetic peptide (bought: Shanghai Apeptide Co., Ltd)
binding [1]: no binding (tested: 500 µM)

B2: endogenous praja2 (HEK293) (protein, UniProt O43164 1-708)
chain: MSQYTEKEPAAMDQESGKAVWPKPAGGYQTITGRRYGRRHAYVSFKPCMTRHERSLGRAGDDYEVLELDDVPKENSSGSSPLDQVDSSLPSEPIFEKSETEIPTCGSALNQTTESSQSFVAVHHSEEGRDTLGSSTNLHNHSEGEYIPGACSASSVQNGIALVHTDSYDPDGKHGEDNDHLQLSAEVVEGSRYQESLGNTVFELENREAEAYTGLSPPVPSFNCEVRDEFEELDSVPLVKSSAGDTEFVHQNSQEIQRSSQDEMVSTKQQNNTSQERQTEHSPEDAACGPGHICSEQNTNDREKNHGSSPEQVVRPKVRKLISSSQVDQETGFNRHEAKQRSVQRWREALEVEESGSDDLLIKCEEYDGEHDCMFLDPPYSRVITQRETENNQMTSESGATAGRQEVDNTFWNGCGDYYQLYDKDEDSSECSDGEWSASLPHRFSGTEKDQSSSDESWETLPGKDENEPELQSDSSGPEEENQELSLQEGEQTSLEEGEIPWLQYNEVNESSSDEGNEPANEFAQPAFMLDGNNNLEDDSSVSEDLDVDWSLFDGFADGLGVAEAISYVDPQFLTYMALEERLAQAMETALAHLESLAVDVEVANPPASKESIDGLPETLVLEDHTAIGQEQCCPICCSEYIKDDIATELPCHHFFHKPCVSIWLQKSGTCPVCRRHFPPAVIEASAAPSSEPDPDAPPSNDSIAEAP
binding (flag-OFD1 (human)): binds

B4: endogenous praja2 (mouse brain) (protein, UniProt Q80U04 1-707)
chain: MSQYTEKEPSVMDQESSKAAWPKPAGGYQTITGRRYGRRHAYVSFKPCMTRHERSLGRAGDDYEVLELDDVPKENTSGSSSLDQVHPALPNEPTVEKSETEISTCGPALNQSTESSPSIATVCHSEEVRETLESNTNLHNRTETEHTPAVCNVSSVQNGIMLVHTDSYDPDSKHDENGSLQLGAEAVEGGRHQKGLGRAVFELENGEAEIYADLSPSVPSLNGEISEAFEELDSAPLEKSSTADAELVHQNGQEFQRSSEDGVVRKRRQDDTDQGRQTENSTEDADCAPGHVEQNTSDRANHHGSSPEQVVRPKVRKVISSSQVDQEIGFNRHEAKQRSVQRWREALEVEECSSDDPIIKCDDYDGDHDCMFLTPTYSRVTQRETERNRVTSENGATASGRQESRDNAFWNACGEYYQLFDKDEDSSECSDGEWSASLPHRFSGTEKDQSSSDDSWETLPGKDENDPELQSDSSGPEEENQELSLQEGEQTSLEEGEIPWLQYNEVNESSSDEGNEPANEFAQPEAFMLDGNNNLEDDSSVSEDLDVDWSLFDGFADGLGVAEAISYVDPQFLTYMALEERLAQAMETALAHLESLAVDVEVANPPASKESIDGLPETLVLEDHTAIGQEQCCPICCSEYIKDDIATELPCHHFFHKPCVSIWLQKSGTCPVCRRHFPPAVIDASAAASSDPDPDASPANDNAEEAP
binding [3]: binds

Second part, the binder after the results:

binding [2]: binds
B3: endogenous praja2 (cell lysates, Fig 1E) (protein, UniProt O43164 1-708)
chain: B2 chain

binding [3]: binds
B5: endogenous OFD1 (mouse brain) (protein, UniProt Q80Z25 1-1017)
chain: MAQSNMPHKSDVLSQDELRKKLYQTFKDRGVLDTLQTQLRNQLIHELMHPVLSGEVKPPSISVEGSALLIGASNSLVADHLQRCGYEYSLSVFFPESGLAKEKIFTMQDLLQLIRINPSSSLYKSLISGFDKENKKGFLMSFLKELAEYYQAKESCDAETQTSTTFPSQVSLAEKFQLIDAQFADGFPHRSKLESLETKLNEYKKEVQHQLQVEMCHKLKYFREAEITKVKMEERRKYEKELAEFQNEFERTCQAKNEALISQEKNSLERIKKHREMESKEIYAQRQLLLNDIALLRGREAELKERIETFELTQKLQEEKIKSEAEALERREQNLKNIEDTYDQKLKTELLKYQLELKDDYITRTNKLLEEERKNKEKTIHLQEELTVINSKKEELSKSVKHMKEVELELESVKAQFLAISKQNHLLNEKVREMSDYSQLKEEKVELQAQNKLLKLQLEETRNENLRLLDRITQPPPELVIFQKELQKTEKAMELEHKDFETHRQALEKQLQSEIENSAQLRTQIAEYDASVKRLTVQVAELKSQLKQTQIALENEVYRNPKHSLIHSLSGLLLSGKMAPHSEDKSGDFLNVPLEQNKVIAGAVMSRVPPYVNTATEASSPESDFEFIASSTKAKVRELEQEAERLEKAFRTYYQRATQNPSTSPQPAKSPPSVNSVAALRSIASSSMDRPVSAEDRVVSEQPLGDMLKEEMSDMSKAFMGSVVSRPRRTSSSTRLSSTPHPKSRRSLDNEMYLEGLGRLHMTSSSPLLDRVSASPAASPSPCPERTAQASPVPSRHSFSGLPEQNACLYQRQTETQDKSELSNVDKQSLKDEKFEPPFRWNKTEQFEAEGLHPAGDMPGIDFAVATQSSRLISYDYPSAVQSQTGEQDEQELWELHMKERRQREEQRHNERQEALERERRELGKLEQERRMIEESLKMEMEEELEKSVQDQKDKSAHCENTLEKYMKIIQQRQEESNADKSSKKSGKECSLVDMMMPSDKDESSPGFSHEEPDDMW
